# In PubChem BioAssay AID540276 (National Center for Advancing Translational Sciences (NCATS), 2011):
# Out of some 300,000 compounds screened, about 5,400 (1.8%) were called active. This list was built around the results that the source calls inconclusive (neither active nor inactive); the mix of calls is not that of the screen. Calls follow the shape of the full dose curve; tested in HEK293 cells. Potencies beside an inconclusive call are fits to weak or partial responses and may not hold up.
# Assay: qHTS for inhibitors of binding or entry into cells for Marburg Virus
# Details: Marburg virus pseudotyped entry inhibition, cell reporter; activity change, negative = inhibition: at 37.8 µM (top of the series) unless noted
# % is scaled to controls: 0 for no effect and ±100 for the full control effect; potency is read from the fitted curve at half-maximal effect.
SMILES,"activity change, negative = inhibition",Potency
COc1ccccc1NS(=O)(=O)c1cc2c3c(c1)CC(=O)N3CCC2,inactive: -6.39% [at 46.1 µM],
COc1ccc(Cl)cc1NC(=O)CN(C)CC(=O)Nc1ccccc1-c1ccccc1,,"inconclusive: 12.6 µM [inhibitor, single point]"
CCN(CC)C(=O)c1cnn(-c2ccccc2)c1NC(=O)c1cccc(F)c1,,"inconclusive: 1.78 µM [activator, single point]"
Cc1ccc(SCC(=O)Nc2ccc(-c3nc4ccccc4[nH]3)cc2)cc1,,"inconclusive: 11.6 µM [inhibitor, single point]"
CCCCN(C(=O)Cn1nnc2ccccc21)C(C(=O)NCc1ccco1)c1ccncc1 (stereo not drawn),,"inconclusive: 35.5 µM [activator, single point]"
O=c1c2ccccc2c(-c2cccc(C(F)(F)F)c2)nn1-c1ccccc1,,"inconclusive: 17.8 µM [inhibitor, single point]"
COc1cc(OC)c(C2=NOC(C(=O)Nc3cc(C)nn3-c3ccccc3)C2)cc1Cl (stereo not drawn),,"inconclusive: 29.1 µM [inhibitor, single point]"
Cc1ccccc1C(=O)N(Cc1nc2ccccc2c(=O)[nH]1)C1CCCC1,,"inconclusive: 14.1 µM [inhibitor, single point]"
Cc1cccc(NS(=O)(=O)c2ccc(C(=O)NCC(C)(C)N3CCOCC3)cc2)c1C,,"inconclusive: 3.16 µM [inhibitor, full curve, poor fit]"
COc1ccc(C(=O)NCCn2cc(SCC(=O)Nc3cc(C)on3)c3ccccc32)cc1OC,,"inconclusive: 8.91 µM [inhibitor, partial curve, poor fit]"
O=C(Nc1ccc(NS(=O)(=O)c2ccccc2)cc1)c1ccc(Cl)cc1,inactive: -1.44%,
COc1ccccc1N=CC=C1OC(C)(C)C(C)(C)O1,,"inconclusive: 8.91 µM [inhibitor, partial curve, poor fit]"
COc1ccc(C(CCNC(C)c2ccccc2)c2ccc(F)cc2)cc1 (stereo not drawn),,"inconclusive: 7.08 µM [inhibitor, partial curve, poor fit]"
Cc1cc(N2CCOCC2)nc(-c2ccccc2O)n1,,"inconclusive: 10 µM [inhibitor, partial curve, poor fit]"
CC(NC(=O)c1cc(Br)cs1)C1CCCO1 (stereo not drawn),inactive: 5.03%,
Cc1ccsc1/C=N/NC(=O)Cc1cccn1C,,"inconclusive: 11.2 µM [activator, partial curve]"
CC(=O)OCc1c(F)c(F)c(-n2nc(C)cc2C)c(F)c1F,,"inconclusive: 0.501 µM [activator, partial curve, poor fit]"
CC(=O)c1c(C)[nH]c(C(=O)CN2C(=O)NC3(CCCCC3)C2=O)c1C,,"inconclusive: 6.31 µM [activator, partial curve]"
Nc1c([N+](=O)[O-])c(=O)oc2ccccc12,inactive: -1.74% [at 46.1 µM],
CCCC1(c2ccccc2)NC(=O)N(C/C=C/Cl)C1=O (stereo not drawn),inactive: -15.6% [at 46.1 µM],
CCOc1c(C#N)c(C#N)c2nc(C)cc(C)n12,,"inconclusive: 0.251 µM [activator, full curve, poor fit]"
Nc1c(-c2ccc(Cl)cc2)cnn1-c1ccccc1,,"inconclusive: 1.26 µM [activator, partial curve, poor fit]"
CCCCn1c(SCC(=O)N(CC)C2CCS(=O)(=O)C2)nc2cc(S(N)(=O)=O)ccc21 (stereo not drawn),inactive: 4.89% [at 46.1 µM],

SMILES,"activity change, negative = inhibition",Potency
N#C/C(=C1\CCCN1)c1ccc2ccccc2n1,inactive: 12.6%,
OCC1(Cc2ccccc2F)CCCN(Cc2c(F)ccc(F)c2F)C1 (stereo not drawn),,"inconclusive: 0.631 µM [inhibitor, full curve, poor fit]"
COc1ccc(S(=O)(=O)Nc2c(C)ccc3nsnc23)cc1OC,,"inconclusive: 6.31 µM [activator, full curve]"
Cn1c(-c2ccc(Br)o2)nc2cc(Br)ccc21,,"inconclusive: 2.51 µM [activator, partial curve, poor fit]"
CCc1ccc(CNC(=O)c2cnc3sc4cc(OC)ccc4n3c2=O)cc1,,"inconclusive: 7.08 µM [activator, full curve, poor fit]"
Cc1csc(NC(=O)c2ccc(C)c([N+](=O)[O-])c2)n1,,"inconclusive: 7.31 µM [inhibitor, partial curve, poor fit]"
CCOC(=O)c1c(-c2ccccc2)oc2cc(CN(C)C)c(O)c(CN(C)C)c12,,"inconclusive: 29.1 µM [inhibitor, single point]"
CC(C)CC(=O)Nc1cc2nn(-c3ccccc3)nc2cc1Cl,,"inconclusive: 1.83 µM [activator, partial curve, poor fit]"
CC/C(=N\NC(=O)COc1ccc(Br)cc1)c1ccc(OC)c(OC)c1,,"inconclusive: 35.5 µM [inhibitor, single point]"
O=C1COc2ccc(C(=O)COC(=O)Cc3ccc(Cl)cc3)cc2N1,,"inconclusive: 3.16 µM [activator, single point]"
CCc1ccc(NC(=S)NCC2CCCN2CC)cc1 (stereo not drawn),inactive: -0.194% [at 46.1 µM],
O=C(COC(=O)Cc1ccsc1)Nc1ccc(Cl)cn1,,"inconclusive: 12.6 µM [activator, single point]"
CN(C)c1cccc(C(=O)OCCCC(=O)c2ccc(F)cc2)c1,inactive: 18.6%,
Cc1cc(C)n2c(=O)c3ccc(Cl)cc3nc2c1C#N,inactive: 24.2% [at 46.1 µM],
COc1cc(C(=S)N2CCCCC2)ccc1OCC(=O)Nc1ccccc1Cl,,"inconclusive: 20.6 µM [inhibitor, single point]"
Nc1ccc2c(c1)C(=O)c1ccc(Cl)cc1-2,inactive: -10.2% [at 46.1 µM],
CCCn1c(N)c(C(=O)CSc2nnc(-c3cccs3)n2C2CC2)c(=O)[nH]c1=O,,"inconclusive: 35.5 µM [inhibitor, single point]"
S=C(NCc1ccc2c(c1)OCO2)NC1CCN(Cc2ccccc2)CC1,,"inconclusive: 6.51 µM [inhibitor, partial curve, poor fit]"
COc1ccc(S(=O)(=O)NN(C)C)cc1N(C)S(=O)(=O)c1ccc(Cl)cc1,inactive: 24.1%,
CC1CN(S(=O)(=O)c2csc(C(=O)Nc3ccccc3)c2)CC(C)O1 (stereo not drawn),,"inconclusive: 20 µM [inhibitor, partial curve, poor fit]"
CSc1nc(-c2ccccc2)nc(C(Cl)Cl)n1,,active: 3.55 µM
COc1ccc(CCNc2nc(-c3cccnc3)cs2)cc1OC,,"inconclusive: 29.1 µM [inhibitor, single point]"
CCCCn1c(N)c(N(Cc2ccccc2OC)C(=O)COc2ccc(C)cc2)c(=O)[nH]c1=O,,"inconclusive: 5.62 µM [activator, single point]"

# Sorted by number of heavy atoms (rising): some entries from above
SMILES,"activity change, negative = inhibition",Potency
Cn1c(-c2ccc(Br)o2)nc2cc(Br)ccc21,,"inconclusive: 2.51 µM [activator, partial curve, poor fit]"
O=C(COC(=O)Cc1ccsc1)Nc1ccc(Cl)cn1,,"inconclusive: 12.6 µM [activator, single point]"
COc1ccc(CCNc2nc(-c3cccnc3)cs2)cc1OC,,"inconclusive: 29.1 µM [inhibitor, single point]"
CC/C(=N\NC(=O)COc1ccc(Br)cc1)c1ccc(OC)c(OC)c1,,"inconclusive: 35.5 µM [inhibitor, single point]"

# Continuation.

SMILES,"activity change, negative = inhibition",Potency
CC(Sc1nc(-c2ccc(F)cc2)cs1)C(=O)Nc1ccc(Cl)cn1 (stereo not drawn),,"inconclusive: 0.355 µM [inhibitor, partial curve, poor fit]"
CCOC(=O)c1c(C)nc2sc(C(=O)Nc3ccc(C(C)=O)cc3)c(N)c2c1-c1ccc(OC)cc1,,active: 2.82 µM
O=C(CCNC(=O)c1ccc(Br)cc1)Nc1cccc(S(=O)(=O)N2CCCCC2)c1,,"inconclusive: 14.1 µM [inhibitor, single point]"
Cc1ccc(NC(=O)c2ccc3c(c2)C(=O)N(c2ccccc2C)C3=O)nc1,,"inconclusive: 2.24 µM [inhibitor, single point]"
Cc1c(Cl)cccc1S(=O)(=O)N1CCC(C(=O)NNC(=O)C2CC2)CC1,inactive: 20.4% [at 46.1 µM],
CC(C)c1cc(C(=O)N2CCCC(Nc3ccc(F)c(F)c3)C2)nc(N)n1 (stereo not drawn),,"inconclusive: 35.5 µM [inhibitor, single point]"
CCOC(=O)c1sc(NC(=O)Nc2ccc(F)cc2)nc1C,,"inconclusive: 7.08 µM [inhibitor, partial curve, poor fit]"
COC(=O)C1=C(C)N(CC2CC2)C(=NCCc2cccnc2)NC1c1ccccc1 (stereo not drawn),inactive: 4.28% [at 14.2 µM],
Cc1cc(-c2ccccc2)nc2cc(C(=O)N(Cc3ccccc3)Cc3ccccc3)nn12,,"inconclusive: 11.2 µM [inhibitor, partial curve, poor fit]"
CCN(CC)c1ccc2c(cc1=O)[C@@H](NC)CCc1cc(OC)c(OC)c(OC)c1-2,,active: 3.98 µM
CCC(C(=O)OCC(=O)Nc1ccc(Cl)c(S(=O)(=O)N(C)C)c1)c1ccccc1 (stereo not drawn),,active: 11.2 µM
COc1cc2c(cc1CN1CCN(C(=O)c3cc(OC)c(OC)c(OC)c3)CC1)OCO2,,"inconclusive: 2.82 µM [inhibitor, partial curve, poor fit]"
O=C(Nc1ccc([N+](=O)[O-])cc1)c1cc2ccccc2nc1Cl,,"inconclusive: 35.5 µM [inhibitor, single point]"
Cc1ccc(S(=O)(=O)N2CCC[C@H]2C(=O)OC(C)C(=O)Nc2ncc(Cl)cc2Cl)cc1 (stereo partly drawn),inactive: -10.4%,
CCNC(=O)c1ccc(NC(=O)CC2SC(N3CCCC3)=NC2=O)cc1 (stereo not drawn),inactive: 0.361%,
CCOC(=O)c1cc(C)n(CCc2cnc[nH]2)c1C,inactive: 28.7%,
Cc1ccc(-c2nc(CS(=O)CC(=O)NCCN3CCCC3)c(C)o2)cc1 (stereo not drawn),inactive: -1.28%,
COc1ccc(N=CC2=C(O)c3ccccc3C2=O)cc1,,"inconclusive: 2.82 µM [inhibitor, full curve, poor fit]"
O=C(CCC(=O)Nc1ccccc1Cl)NNC(=O)c1ccco1,,"inconclusive: 0.058 µM [activator, partial curve, poor fit]"
N#CCSc1nnc(COc2cccc3ccccc23)n1-c1ccccc1,,"inconclusive: 29.1 µM [inhibitor, single point]"
COc1cc(NC(=O)C2CCCN(S(=O)(=O)c3ccc4c(c3)oc(=O)n4C)C2)c(C(=O)O)cc1OC (stereo not drawn),inactive: -3.46% [at 46.1 µM],
O=C(Nc1ccc2c(c1)Cc1ccccc1-2)c1ccc(Br)o1,inactive: 3.65%,
